Results are given in words; binding and its absence hold for the method and conditions named. Some entries that bind do so weakly or less than the wild type.

Sequences of proteins named here, by UniProt entry; tags and fusion partners are left off. Residues count along the entry.
UniProt Q8NHJ6, residues 22-259: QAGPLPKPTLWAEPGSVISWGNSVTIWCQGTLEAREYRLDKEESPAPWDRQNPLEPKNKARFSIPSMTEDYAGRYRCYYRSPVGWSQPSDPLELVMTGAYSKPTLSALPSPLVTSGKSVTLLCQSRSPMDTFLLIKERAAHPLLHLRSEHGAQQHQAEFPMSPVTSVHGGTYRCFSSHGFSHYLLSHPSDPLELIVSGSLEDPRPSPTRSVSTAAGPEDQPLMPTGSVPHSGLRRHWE

The assay deals with LILRB4抗原 (人LILRB4蛋白胞外段) (human) (UniProt Q8NHJ6). Nature of the assay: phage ELISA on coated LILRB4.

B1: MB-Ⅰ 噬菌体单克隆抗体 (phage-displayed single-chain antibody) (scFv, V domains shown)
VH: QVQLQESGAELVKPGASVKLSCKASGYTFTNYWMHWVKQRPGQGLEWIGEINPSNGRTNYNEKFKTKATLTVDKSSSTAYMQLSSLTSEDSAVYYCARWGQLGLREGYYAVDYWGQGTSVTVSS
VL: DIVMTQSPSSLSASLGDRVTISCRASQDISNYLNWYQQKPDGTVKLLIYYTSRLHSGVPSRFSGSGSGTDYSLTISNLEQEDIATYFCQQGNTLPPTFGGGTKLEIK
Regarding B1, the binding result is “binds”.

B2: MA-Ⅰ 噬菌体单克隆抗体 (phage-displayed single-chain antibody) (scFv, V domains shown)
VH: EVQLQQSGGGLVKPGGSLKLSCAASGFTFSSYTMSWVRQTPEKRLEWVATISSGGTYTYYPDSVKGRFTISRDNAKNTLYLQMSSLKSEDTAMYYCTRDGYDGFDYWGQGTTLTVSS
VL: DIVMTQTTLSLPVSPGDQASISCRSSQSLAHSNGNTYLHWYLQKPGQSPKLLIYKVSNRFSGVPDRFSGSGSGTDFTLKISRVEAEDLGVYFCSQSTLVPTFGGGTKLEIK
For the molecule B2, the binding entry is given as “binds”.

(Values after CN116203146A.)
